Measured values reported in the supplement of paper PMC12889115.
The list shows a part of the results. Values are raw readings; no control value is given beside them.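 Primary screen: polymyxin B was added at a level permeabilizing Salmonella outer membranes while sparing inner membranes. DMSO wells, both with and without polymyxin B, established maximum growth. Plate-to-plate variation meant each plate was ranked on its own, and the lowest-OD600 compounds were selected as hits.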

System: Salmonella enterica serovar Typhimurium SL1344
Assay: bacterial growth OD600 after 18 h with compound and polymyxin B; higher = more bacterial growth (less inhibition)
Conditions: 50 µM, Mueller-Hinton broth

| SMILES | bacterial growth OD600 (polymyxin B 1 µg/mL) | bacterial growth OD600 (polymyxin B 0.75 µg/mL) |
| --- | --- | --- |
| COc1ccc(OC2CCN(C(=O)C3CC3)CC2)c(C(=O)NCc2cc(F)cc(F)c2)c1 | 1 |  |
| COc1ccccc1CCN1CCCC(CN(C)C(=O)C(C)(C)C)C1 (centres undefined) | 0.77 |  |
| CN(C(=O)c1ccsc1)C(Cc1ccccc1)C1CCN(C(=O)/C=C/c2ccccc2)CC1 (centres undefined) |  | 0.031 |
| Cc1ccsc1C(=O)N1CCc2onc(-c3ccccc3F)c2C1 |  | 0.622 |
| COCC(=O)Nc1cc(C(=O)N2CCC(Oc3ccccc3F)CC2)c2c(c1)nc(C1CCC1)n2C |  | 0.974 |
| CCC1CN(CC(=O)NC(CCn2ccnc2)c2ccccc2)Cc2cc(OC)ccc2O1 (centres undefined) |  | 0.785 |
| CCNC(=O)c1sc2ncnc(N3CCCCCCC3)c2c1C |  | 0.747 |
| CCOc1ccccc1CN1CCC(C(Cc2ccccc2)N(CC)C(=O)C2CCOCC2)CC1 (centres undefined) |  | 0.826 |
| NC(=O)C1CCCN(C(=O)c2ccc(OC3CCN(CCc4ccccc4)CC3)cc2)C1 (centres undefined) | 1.21 |  |
| CCOC(=O)C1(Cc2ccc(OC)cc2)CCN(S(=O)(=O)c2ccccc2)CC1 | 0.718 |  |
| Cc1c[nH]c(CN(C)c2ccc(-c3nc(-c4ccccc4F)no3)cn2)n1 | 0.922 |  |
| CC(=O)N1CCN(Cc2cn(-c3cccc(C)c3)nc2-c2cccc(F)c2)CC1 | 0.93 |  |
| COCC(C)Nc1ccc(-c2nc(Cc3ccc(F)cc3)no2)cn1 (centres undefined) |  | 0.41 |
| O=C(Cc1ccccc1)Nc1nc2c(s1)C(=O)CC(C(=O)NCc1cccc(-n3cccn3)c1)C2 (centres undefined) |  | 1.03 |
| O=C(c1cn(C2CCCCC2)nn1)N(CC1CC1)CC1CCCO1 (centres undefined) | 0.956 |  |
| Cc1cc(C)n(Cc2cc(C(=O)N(C)C(C)c3ccon3)n[nH]2)n1 (centres undefined) |  | 0.872 |
| COc1cc(C(=O)NC2CC(C)(C)CC(C)(C)C2)ccc1OC1CCN(C(C)=O)CC1 | 0.975 |  |
| COc1cccc(CN2CCN(C(=O)CCC3(Cc4cccs4)CCC(=O)N3)CC2=O)c1 (centres undefined) |  | 0.856 |
| COCCN(CC1CCN(Cc2ccccc2OC)CC1)C(=O)[C@H](C)NC(C)=O | 0.956 |  |

3 entries already listed, ordered by length of the SMILES, smallest number first:

| SMILES | bacterial growth OD600 (polymyxin B 1 µg/mL) | bacterial growth OD600 (polymyxin B 0.75 µg/mL) |
| --- | --- | --- |
| Cc1ccsc1C(=O)N1CCc2onc(-c3ccccc3F)c2C1 |  | 0.622 |
| COCCN(CC1CCN(Cc2ccccc2OC)CC1)C(=O)[C@H](C)NC(C)=O | 0.956 |  |
| CN(C(=O)c1ccsc1)C(Cc1ccccc1)C1CCN(C(=O)/C=C/c2ccccc2)CC1 (centres undefined) |  | 0.031 |
